Data: paper PMC4682817, “The Cardiac Stress Response Factor Ms1 Can Bind to DNA and Has a Function in the Nucleus”
Results are given in words; binding and its absence hold for the method and conditions named.

Target: Ms1 actin binding domain 2 (ABD2, residues 294-375) (rat) (UniProt Q8K4K7)
Assay: NMR 15N relaxation (R1/R2 ratios, rotational correlation time); ABD2 alone in solution; 298 K, pH 7.2, 188-500 uM protein, 20 mM sodium phosphate pH 7.0, 50 mM NaCl, 2 mM DTT, 0.02% NaN3; both purified

B1: Ms1 actin binding domain 2 (ABD2, residues 294-375) (domain or fragment, UniProt Q8K4K7 294-375)
chain: KRAEEHIYREIMELCFVIRTMARHRRDGKIQVTFGELFDRYVRISDKVVGILMRARKHGLVHFEGEMLWQGKDDHVVITLLE
Question: Which binding does the source give for B1 here?
Answer: no binding (tested: between 188 μM and 500 μM)
